# Reference: the supplement of paper PMC12819154, “High-throughput peptide-centric local stability assay extends protein–ligand identification to membrane proteins, tissues and bacteria” (Nature Structural & Molecular Biology, 2025)
# Chains of the proteins cited; added tags and fusions are not shown. Lines headed by an entry give the natural chain unless they say otherwise; changes in a name come on top.
# UniProt Q9Y2H0: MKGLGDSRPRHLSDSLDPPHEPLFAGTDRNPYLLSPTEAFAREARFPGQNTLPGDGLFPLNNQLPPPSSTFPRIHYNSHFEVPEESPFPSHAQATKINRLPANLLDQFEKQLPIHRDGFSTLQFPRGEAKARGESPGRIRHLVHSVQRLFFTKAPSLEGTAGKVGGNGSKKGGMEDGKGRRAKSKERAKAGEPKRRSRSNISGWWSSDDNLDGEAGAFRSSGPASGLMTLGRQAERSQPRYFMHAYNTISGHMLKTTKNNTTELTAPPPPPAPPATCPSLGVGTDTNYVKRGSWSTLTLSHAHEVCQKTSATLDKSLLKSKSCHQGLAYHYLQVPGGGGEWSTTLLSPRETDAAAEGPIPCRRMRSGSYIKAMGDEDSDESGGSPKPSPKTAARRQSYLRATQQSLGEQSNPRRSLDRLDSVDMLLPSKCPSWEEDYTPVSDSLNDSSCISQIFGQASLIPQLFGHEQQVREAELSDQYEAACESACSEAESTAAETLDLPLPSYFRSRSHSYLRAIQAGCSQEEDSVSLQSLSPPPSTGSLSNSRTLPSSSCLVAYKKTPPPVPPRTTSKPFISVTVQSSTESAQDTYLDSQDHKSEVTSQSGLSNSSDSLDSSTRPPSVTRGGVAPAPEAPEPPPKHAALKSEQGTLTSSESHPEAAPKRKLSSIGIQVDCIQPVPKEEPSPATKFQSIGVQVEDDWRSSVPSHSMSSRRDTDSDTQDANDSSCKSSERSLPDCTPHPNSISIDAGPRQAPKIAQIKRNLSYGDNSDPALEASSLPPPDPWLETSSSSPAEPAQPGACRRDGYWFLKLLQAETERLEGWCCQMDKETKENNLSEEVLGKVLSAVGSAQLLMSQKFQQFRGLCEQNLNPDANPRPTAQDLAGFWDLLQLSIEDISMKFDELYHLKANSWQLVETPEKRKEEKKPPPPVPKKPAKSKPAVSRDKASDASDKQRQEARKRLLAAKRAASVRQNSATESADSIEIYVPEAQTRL
# UniProt Q9Y316: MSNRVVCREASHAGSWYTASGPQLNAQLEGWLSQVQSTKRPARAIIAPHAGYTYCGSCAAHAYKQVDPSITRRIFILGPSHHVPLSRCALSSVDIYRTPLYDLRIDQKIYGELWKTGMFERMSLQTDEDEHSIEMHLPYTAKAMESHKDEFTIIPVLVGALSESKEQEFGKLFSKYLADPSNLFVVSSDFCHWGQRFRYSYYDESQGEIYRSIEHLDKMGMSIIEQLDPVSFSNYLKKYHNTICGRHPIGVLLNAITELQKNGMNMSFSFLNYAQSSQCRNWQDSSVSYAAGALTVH
# UniProt Q9Y2W1: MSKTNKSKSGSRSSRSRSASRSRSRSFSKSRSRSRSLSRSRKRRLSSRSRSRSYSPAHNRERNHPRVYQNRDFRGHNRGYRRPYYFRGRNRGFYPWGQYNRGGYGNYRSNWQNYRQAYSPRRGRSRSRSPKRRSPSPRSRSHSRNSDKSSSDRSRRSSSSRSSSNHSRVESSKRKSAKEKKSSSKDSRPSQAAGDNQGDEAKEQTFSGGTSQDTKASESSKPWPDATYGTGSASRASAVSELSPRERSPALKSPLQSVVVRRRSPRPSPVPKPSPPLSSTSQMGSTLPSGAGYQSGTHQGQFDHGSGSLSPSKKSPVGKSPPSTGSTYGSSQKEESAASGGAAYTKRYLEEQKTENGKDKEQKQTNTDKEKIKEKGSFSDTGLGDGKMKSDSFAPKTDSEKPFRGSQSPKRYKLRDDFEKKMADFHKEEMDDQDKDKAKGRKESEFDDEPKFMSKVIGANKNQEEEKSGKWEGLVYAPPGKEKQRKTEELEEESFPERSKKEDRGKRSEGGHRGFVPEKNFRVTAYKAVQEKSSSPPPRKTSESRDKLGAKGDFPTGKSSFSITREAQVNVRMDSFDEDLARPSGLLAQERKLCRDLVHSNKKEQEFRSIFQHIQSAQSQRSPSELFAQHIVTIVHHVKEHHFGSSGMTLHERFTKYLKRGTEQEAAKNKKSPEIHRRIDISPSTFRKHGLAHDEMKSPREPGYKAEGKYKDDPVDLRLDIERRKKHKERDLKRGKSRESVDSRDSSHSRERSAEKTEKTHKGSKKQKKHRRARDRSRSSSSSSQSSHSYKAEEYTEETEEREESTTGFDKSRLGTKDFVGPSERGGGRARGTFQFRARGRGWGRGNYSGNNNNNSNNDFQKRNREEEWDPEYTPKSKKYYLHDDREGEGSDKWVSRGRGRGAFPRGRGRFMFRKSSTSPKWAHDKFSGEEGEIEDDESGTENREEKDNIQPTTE
# UniProt Q9Y473: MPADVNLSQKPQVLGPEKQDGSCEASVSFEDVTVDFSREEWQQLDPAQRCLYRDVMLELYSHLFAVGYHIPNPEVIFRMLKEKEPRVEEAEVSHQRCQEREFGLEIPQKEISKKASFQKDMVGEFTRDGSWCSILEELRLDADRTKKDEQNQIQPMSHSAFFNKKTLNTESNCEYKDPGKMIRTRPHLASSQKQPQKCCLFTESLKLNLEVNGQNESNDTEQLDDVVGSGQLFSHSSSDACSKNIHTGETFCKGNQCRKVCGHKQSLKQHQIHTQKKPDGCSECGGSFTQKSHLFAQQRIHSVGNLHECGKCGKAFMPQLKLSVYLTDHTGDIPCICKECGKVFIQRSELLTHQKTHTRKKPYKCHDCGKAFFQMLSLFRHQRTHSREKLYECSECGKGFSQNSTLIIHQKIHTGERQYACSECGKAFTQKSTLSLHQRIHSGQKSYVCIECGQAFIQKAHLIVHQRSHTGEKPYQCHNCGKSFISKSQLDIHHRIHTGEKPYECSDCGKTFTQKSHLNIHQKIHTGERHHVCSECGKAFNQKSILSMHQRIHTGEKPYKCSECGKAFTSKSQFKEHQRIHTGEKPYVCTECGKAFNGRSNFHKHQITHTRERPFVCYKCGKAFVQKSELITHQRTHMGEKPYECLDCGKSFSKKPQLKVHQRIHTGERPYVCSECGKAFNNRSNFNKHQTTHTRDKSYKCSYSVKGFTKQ
# UniProt Q9Y5J6: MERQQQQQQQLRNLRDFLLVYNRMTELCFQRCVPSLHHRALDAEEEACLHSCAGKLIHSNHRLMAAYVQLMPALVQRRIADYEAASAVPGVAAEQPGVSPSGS
# UniProt Q9Y3L3: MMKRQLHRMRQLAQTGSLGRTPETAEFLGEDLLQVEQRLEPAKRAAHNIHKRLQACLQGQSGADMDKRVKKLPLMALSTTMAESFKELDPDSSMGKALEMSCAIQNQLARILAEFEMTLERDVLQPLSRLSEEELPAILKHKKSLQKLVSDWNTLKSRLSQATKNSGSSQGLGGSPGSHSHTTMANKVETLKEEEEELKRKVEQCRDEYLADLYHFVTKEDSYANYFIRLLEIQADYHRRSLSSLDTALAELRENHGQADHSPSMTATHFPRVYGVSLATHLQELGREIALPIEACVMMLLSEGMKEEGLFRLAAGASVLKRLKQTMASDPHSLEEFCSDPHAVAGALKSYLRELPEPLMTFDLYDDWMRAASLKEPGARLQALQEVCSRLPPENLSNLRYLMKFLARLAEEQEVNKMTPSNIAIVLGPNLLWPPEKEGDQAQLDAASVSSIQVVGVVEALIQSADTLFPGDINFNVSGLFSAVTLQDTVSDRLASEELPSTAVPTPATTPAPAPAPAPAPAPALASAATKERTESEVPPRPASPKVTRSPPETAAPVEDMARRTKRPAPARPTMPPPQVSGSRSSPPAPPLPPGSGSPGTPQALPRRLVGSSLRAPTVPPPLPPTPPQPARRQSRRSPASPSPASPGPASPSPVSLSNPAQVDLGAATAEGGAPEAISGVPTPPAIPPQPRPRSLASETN
# UniProt Q9Y6I4: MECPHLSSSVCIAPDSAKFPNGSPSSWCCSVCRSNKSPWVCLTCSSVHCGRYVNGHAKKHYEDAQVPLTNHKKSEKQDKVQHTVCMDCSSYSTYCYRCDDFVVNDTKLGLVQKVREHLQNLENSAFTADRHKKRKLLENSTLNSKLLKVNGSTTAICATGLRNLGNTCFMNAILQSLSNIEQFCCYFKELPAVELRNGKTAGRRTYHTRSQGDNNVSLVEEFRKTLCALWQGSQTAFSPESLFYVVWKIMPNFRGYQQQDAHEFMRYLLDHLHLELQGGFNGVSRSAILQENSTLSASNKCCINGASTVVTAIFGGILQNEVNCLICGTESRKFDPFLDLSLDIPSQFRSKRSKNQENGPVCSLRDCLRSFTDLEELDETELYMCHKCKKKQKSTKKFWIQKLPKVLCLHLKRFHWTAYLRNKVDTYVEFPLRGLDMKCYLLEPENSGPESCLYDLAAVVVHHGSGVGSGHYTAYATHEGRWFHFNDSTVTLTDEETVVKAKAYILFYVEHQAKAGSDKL
# UniProt Q9Y5L2: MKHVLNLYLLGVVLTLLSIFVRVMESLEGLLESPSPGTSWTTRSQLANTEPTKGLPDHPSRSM
# UniProt Q9Y6W5, whole entry: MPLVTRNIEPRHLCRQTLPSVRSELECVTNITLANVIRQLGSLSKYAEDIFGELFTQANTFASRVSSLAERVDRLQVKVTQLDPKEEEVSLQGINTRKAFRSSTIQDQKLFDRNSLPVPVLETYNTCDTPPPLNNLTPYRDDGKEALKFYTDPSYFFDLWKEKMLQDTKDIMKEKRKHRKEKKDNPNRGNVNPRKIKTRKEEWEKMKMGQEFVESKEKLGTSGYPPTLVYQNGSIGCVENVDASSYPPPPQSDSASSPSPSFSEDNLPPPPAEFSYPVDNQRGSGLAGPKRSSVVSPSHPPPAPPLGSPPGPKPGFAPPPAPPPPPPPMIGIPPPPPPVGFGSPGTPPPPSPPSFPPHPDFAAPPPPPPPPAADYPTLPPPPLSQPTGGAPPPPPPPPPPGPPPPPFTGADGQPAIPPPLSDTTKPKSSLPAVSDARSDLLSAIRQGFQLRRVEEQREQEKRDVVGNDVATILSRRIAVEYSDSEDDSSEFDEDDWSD
# UniProt Q9Y2Q3: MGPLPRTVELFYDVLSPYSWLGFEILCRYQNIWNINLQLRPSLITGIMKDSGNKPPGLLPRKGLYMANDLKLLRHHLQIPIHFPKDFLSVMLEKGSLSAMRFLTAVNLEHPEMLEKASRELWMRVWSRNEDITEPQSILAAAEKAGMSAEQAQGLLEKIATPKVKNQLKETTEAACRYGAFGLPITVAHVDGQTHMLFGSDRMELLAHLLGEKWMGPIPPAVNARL
# UniProt Q9Y6R0: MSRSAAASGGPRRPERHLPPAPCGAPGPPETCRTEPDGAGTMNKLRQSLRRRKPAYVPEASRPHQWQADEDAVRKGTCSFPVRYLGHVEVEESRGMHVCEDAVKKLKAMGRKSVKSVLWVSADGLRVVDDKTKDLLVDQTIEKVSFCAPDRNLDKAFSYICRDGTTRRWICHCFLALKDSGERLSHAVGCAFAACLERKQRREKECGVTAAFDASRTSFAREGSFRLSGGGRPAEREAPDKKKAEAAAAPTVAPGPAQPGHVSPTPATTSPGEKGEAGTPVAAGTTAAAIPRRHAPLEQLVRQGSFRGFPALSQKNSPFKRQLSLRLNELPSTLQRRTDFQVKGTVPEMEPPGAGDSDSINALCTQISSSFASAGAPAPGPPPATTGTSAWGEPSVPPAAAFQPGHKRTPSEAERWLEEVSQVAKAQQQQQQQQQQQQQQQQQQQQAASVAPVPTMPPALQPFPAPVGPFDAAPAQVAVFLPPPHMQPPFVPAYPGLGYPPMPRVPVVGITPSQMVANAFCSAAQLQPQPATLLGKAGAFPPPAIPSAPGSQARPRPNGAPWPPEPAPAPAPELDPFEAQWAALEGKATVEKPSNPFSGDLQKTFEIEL
# UniProt Q9Y2I8: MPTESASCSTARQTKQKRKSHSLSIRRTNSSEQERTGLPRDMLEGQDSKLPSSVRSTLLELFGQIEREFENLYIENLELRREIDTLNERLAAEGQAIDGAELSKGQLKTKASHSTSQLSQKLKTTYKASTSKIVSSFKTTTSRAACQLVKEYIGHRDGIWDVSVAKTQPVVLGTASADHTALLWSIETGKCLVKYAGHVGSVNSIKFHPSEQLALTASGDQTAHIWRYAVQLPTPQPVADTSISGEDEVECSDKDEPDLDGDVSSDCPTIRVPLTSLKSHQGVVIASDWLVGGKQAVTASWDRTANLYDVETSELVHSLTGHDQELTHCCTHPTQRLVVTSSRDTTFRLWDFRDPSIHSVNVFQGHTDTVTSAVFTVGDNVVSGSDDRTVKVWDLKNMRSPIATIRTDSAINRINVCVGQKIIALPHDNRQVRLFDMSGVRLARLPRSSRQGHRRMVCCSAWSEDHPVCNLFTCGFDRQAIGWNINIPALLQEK
# UniProt Q9Y281, whole entry: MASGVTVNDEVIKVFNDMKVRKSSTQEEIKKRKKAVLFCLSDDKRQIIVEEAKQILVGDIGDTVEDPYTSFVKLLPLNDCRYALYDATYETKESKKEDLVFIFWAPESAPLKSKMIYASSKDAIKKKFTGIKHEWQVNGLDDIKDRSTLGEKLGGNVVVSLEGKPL
# UniProt Q9Y3D0: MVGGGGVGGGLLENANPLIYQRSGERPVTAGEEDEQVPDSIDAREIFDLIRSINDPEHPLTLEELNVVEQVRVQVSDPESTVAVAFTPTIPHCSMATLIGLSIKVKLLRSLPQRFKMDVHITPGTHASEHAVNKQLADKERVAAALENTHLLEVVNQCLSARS
# Some of the results follow. Most values lie at the level of the controls, where differences are scatter.
# Compound: Cc1nc(Nc2ncc(C(=O)Nc3c(C)cccc3Cl)s2)cc(N2CCN(CCO)CC2)n1 [dasatinib]
# Experiment: log2 fold change of tryptic peptide abundance, ligand vs vehicle (limited proteolysis) (log2 ratio); higher = more trypsin-susceptible (destabilized)
# Details: ligand concentration: 5 uM; sample: K562 cleared lysate
row,Target,log2 fold change
1,"UniProt Q9Y4D8 (peptide sequence: CVEWEKEEGGSTEAVHSGLAR, peptide start residue: 1334)",0.608
2,"DLGAP4 (peptide sequence: DKASDASDKQR, peptide start residue: 943) (UniProt Q9Y2H0)",-0.449
3,"UniProt Q9Y561 (peptide sequence: SLFSVESDDTDTENERR, peptide start residue: 646)",0.114
4,"MEMO1 (peptide sequence: TPLYDLR, peptide start residue: 98) (UniProt Q9Y316)",-0.129
5,"THRAP3 (peptide sequence: RNREEEWDPEYTPK, peptide start residue: 863) (UniProt Q9Y2W1)",0.266
6,"BTRC (peptide sequence: TYTYISR, peptide start residue: 599) (UniProt Q9Y297)",0.281
7,"UniProt Q9Y473 (peptide sequence: SQLDIHHR, peptide start residue: 488)",0.258
8,"MAGMAS (peptide sequence: LSPEEVQK, peptide start residue: 68) (UniProt Q9Y3D7)",-0.206
9,"TIMM10B (peptide sequence: LIHSNHR, peptide start residue: 56) (UniProt Q9Y5J6)",-0.179
10,"RNF115 (peptide sequence: GHQTHTDFWGARPPR, peptide start residue: 106) (UniProt Q9Y4L5)",-0.131
11,"MRFAP1 (peptide sequence: CEKAEEK, peptide start residue: 97) (UniProt Q9Y605)",0.35
12,"C2CD2 (peptide sequence: STIIISGISK, peptide start residue: 511) (UniProt Q9Y426)",-0.197
13,"SH3BP1 (peptide sequence: LLEIQADYHRR, peptide start residue: 230) (UniProt Q9Y3L3)",-0.304
14,"USP3 (peptide sequence: NQENGPVCSLR, peptide start residue: 355) (UniProt Q9Y6I4)",0.23
15,"UniProt Q9Y5L2 (peptide sequence: GLPDHPSR, peptide start residue: 54)",0.0648
16,"WASF2 (peptide sequence: SSTIQDQK, peptide start residue: 102) (UniProt Q9Y6W5)",0.083
17,"GSTK1 (peptide sequence: FLTAVNLEHPEMLEK, peptide start residue: 102) (UniProt Q9Y2Q3)",-0.112
18,"NUMBL (peptide sequence: LSHAVGCAFAACLER, peptide start residue: 154) (UniProt Q9Y6R0)",-0.095
19,"WDR37 (peptide sequence: ASHSTSQLSQK, peptide start residue: 111) (UniProt Q9Y2I8)",-0.229
20,"IGF2BP2 (peptide sequence: ILAHNGLVGR, peptide start residue: 279) (UniProt Q9Y6M1)",-0.109
21,"CFL2 (peptide sequence: AVLFCLSDDKR, peptide start residue: 35) (UniProt Q9Y281)",-0.272
22,"MRPS17 (peptide sequence: LVLDPYLLK, peptide start residue: 33) (UniProt Q9Y2R5)",0.0396
23,"UniProt Q9Y3D0 (peptide sequence: EIFDLIR, peptide start residue: 45)",-0.0407
24,"WIPI2 (peptide sequence: GTYVPSSPTR, peptide start residue: 407) (UniProt Q9Y4P8)",-0.138
25,"UniProt Q9Y678 (peptide sequence: VFNETPINPR, peptide start residue: 33)",-0.183
26,"ARFGEF2 (peptide sequence: WLCAVSMDELASPHHPR, peptide start residue: 1093) (UniProt Q9Y6D5)",-0.183
27,"MRPS18C (peptide sequence: AQIMGFMPVTYKDPAYLKDPK, peptide start residue: 114) (UniProt Q9Y3D5)",-0.117
28,"TACC3 (peptide sequence: QKEVIEGYR, peptide start residue: 732) (UniProt Q9Y6A5)",-0.221
29,"UniProt Q9Y3U8 (peptide sequence: FVRDMIR, peptide start residue: 39)",-0.402
